Data from the M2OR odorant receptor database.
The entries are a selection whose mix differs from that of the whole data set. The calls were merged from several studies; some rest on single wells. The list shows a part of the results.

The chains behind the UniProt entries cited, without tags or fusion partners. Where a name states a change or a piece, a line headed by the entry shows the natural chain unless it says otherwise.
UniProt Q8NGE3: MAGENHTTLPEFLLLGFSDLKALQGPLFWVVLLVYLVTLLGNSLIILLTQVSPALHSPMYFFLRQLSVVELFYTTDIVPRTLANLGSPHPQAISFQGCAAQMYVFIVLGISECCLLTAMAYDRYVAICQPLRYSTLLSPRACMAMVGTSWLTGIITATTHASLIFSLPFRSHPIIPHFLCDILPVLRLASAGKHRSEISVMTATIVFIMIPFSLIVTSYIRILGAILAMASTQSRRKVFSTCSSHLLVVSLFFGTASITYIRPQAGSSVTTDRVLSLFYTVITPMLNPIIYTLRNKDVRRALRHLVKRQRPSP
UniProt Q8NGQ4: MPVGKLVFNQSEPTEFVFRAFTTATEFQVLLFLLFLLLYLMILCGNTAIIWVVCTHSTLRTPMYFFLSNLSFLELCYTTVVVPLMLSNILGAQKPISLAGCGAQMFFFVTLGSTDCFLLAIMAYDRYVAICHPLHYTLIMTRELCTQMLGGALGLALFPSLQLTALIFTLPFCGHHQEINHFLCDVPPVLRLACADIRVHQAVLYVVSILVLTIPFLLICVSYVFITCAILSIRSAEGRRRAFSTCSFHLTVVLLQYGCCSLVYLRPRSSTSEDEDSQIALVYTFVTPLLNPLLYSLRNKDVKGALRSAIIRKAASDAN
UniProt Q8NGX6: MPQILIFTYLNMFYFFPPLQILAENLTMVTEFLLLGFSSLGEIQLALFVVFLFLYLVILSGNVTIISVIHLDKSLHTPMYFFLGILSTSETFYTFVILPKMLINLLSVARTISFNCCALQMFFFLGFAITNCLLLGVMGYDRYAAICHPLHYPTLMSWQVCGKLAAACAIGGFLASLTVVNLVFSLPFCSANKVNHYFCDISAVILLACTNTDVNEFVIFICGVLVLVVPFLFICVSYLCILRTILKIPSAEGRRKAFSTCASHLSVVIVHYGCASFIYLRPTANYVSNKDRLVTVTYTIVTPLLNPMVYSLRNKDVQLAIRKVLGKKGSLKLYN
UniProt Q8NGF6: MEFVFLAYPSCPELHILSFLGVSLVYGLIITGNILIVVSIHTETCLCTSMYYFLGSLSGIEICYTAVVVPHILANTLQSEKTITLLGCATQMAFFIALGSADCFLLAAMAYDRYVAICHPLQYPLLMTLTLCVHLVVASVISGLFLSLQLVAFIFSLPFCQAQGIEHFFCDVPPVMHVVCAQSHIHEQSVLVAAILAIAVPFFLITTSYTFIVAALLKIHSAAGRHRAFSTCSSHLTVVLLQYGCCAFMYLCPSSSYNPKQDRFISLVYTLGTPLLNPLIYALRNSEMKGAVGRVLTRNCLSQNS
UniProt Q8NGC1: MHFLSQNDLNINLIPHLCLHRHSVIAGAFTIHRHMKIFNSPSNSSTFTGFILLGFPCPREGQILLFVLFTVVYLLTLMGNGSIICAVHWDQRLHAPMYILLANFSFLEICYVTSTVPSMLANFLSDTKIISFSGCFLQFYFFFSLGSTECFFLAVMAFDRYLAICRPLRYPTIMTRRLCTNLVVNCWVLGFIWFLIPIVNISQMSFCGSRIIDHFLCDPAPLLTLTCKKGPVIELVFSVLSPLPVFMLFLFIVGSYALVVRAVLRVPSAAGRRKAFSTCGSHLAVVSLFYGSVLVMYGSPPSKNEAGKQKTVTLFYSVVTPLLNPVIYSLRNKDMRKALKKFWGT
UniProt Q8NG94: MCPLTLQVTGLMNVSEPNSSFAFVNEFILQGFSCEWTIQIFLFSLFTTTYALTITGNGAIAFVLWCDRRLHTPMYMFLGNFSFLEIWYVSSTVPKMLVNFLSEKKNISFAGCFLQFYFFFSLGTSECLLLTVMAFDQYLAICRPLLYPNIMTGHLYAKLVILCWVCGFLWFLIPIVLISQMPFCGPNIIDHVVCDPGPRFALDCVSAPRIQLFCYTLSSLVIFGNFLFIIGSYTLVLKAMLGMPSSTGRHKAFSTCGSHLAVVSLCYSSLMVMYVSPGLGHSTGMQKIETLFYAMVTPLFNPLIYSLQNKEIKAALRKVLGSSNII
UniProt Q8NGX0: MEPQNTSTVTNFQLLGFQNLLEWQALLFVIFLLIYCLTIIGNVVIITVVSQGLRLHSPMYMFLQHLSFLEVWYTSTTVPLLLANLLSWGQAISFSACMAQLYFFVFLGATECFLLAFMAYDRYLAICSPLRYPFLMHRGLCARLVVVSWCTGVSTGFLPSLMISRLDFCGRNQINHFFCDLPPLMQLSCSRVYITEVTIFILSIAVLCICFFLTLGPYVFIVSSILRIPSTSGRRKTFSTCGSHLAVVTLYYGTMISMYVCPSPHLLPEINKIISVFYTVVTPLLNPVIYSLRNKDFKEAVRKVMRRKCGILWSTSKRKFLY

Columns and labels:
Conditions in all cases: stereoisomer not certain
OR10K1 (Homo sapiens) = biological target: T1, OR10K1 (Homo sapiens) (UniProt Q8NGX5)
T1 sequence (whole entry): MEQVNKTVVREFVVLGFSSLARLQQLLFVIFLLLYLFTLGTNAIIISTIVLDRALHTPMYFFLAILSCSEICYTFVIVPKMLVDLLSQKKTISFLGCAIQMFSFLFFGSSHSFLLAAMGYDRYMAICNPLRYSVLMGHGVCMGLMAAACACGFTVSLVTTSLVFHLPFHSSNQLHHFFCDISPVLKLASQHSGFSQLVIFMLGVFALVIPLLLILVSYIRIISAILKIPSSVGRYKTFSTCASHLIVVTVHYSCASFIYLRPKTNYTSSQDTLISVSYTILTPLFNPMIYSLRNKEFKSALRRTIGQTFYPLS
Summary of the method: (§1)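 Whether a receptor–molecule pair is responsive (active) rests on the original authors' judgment that its measured signal was statistically different from baseline. Pairs without that judgment are non-responsive (inactive). Sources used varied assay methods, commonly transient luciferase assays in mammalian cell lines.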

OR10K2 (Homo sapiens) = biological target: T2, OR10K2 (Homo sapiens) (UniProt Q6IF99)
T2 sequence (whole entry): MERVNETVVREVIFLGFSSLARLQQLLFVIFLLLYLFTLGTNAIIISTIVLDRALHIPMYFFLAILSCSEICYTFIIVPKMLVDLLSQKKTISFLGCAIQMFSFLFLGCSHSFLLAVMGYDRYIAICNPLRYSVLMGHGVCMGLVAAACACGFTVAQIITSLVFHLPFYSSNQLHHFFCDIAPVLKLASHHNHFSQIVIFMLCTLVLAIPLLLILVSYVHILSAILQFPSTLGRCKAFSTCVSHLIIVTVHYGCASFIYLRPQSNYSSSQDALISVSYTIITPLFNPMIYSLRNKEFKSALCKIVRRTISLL
Summary of the method: as §1

OR10S1 (Homo sapiens) = biological target: T3, OR10S1 (Homo sapiens) (UniProt Q8NGN2)
T3 sequence (whole entry): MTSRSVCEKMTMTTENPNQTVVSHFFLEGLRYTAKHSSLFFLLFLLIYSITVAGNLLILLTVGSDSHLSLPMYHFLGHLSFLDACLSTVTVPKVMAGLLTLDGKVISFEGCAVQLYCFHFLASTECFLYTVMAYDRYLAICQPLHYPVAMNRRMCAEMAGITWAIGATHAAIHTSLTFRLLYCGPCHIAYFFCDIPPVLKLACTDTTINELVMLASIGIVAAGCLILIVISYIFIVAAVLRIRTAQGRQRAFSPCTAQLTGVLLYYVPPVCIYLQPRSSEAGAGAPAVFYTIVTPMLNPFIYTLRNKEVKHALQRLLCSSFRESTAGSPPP
Summary of the method: as §1

OR10T2 (Homo sapiens) = biological target: T4, OR10T2 (Homo sapiens) (UniProt Q8NGX3)
T4 sequence (whole entry): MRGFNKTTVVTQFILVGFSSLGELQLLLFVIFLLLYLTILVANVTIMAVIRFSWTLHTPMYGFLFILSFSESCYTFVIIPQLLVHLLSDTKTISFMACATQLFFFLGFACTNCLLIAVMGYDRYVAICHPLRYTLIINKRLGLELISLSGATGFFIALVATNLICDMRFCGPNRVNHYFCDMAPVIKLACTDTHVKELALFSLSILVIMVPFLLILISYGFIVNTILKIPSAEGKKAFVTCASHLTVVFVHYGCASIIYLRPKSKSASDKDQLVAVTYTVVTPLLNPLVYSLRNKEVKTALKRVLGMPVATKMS
Summary of the method: as §1

OR10X1 (Homo sapiens) = biological target: T5, OR10X1 (Homo sapiens) (UniProt Q8NGY0)
T5 sequence (whole entry): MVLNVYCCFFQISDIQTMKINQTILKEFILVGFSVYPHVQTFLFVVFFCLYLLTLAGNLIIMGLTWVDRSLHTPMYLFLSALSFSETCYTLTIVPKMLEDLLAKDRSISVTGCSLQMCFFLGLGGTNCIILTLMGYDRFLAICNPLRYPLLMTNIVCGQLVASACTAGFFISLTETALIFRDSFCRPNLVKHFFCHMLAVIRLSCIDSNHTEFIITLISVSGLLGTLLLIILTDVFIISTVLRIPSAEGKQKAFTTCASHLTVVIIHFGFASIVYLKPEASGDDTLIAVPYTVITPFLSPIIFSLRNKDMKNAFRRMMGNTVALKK
Summary of the method: as §1

OR10Z1 (Homo sapiens) = biological target: T6, OR10Z1 (Homo sapiens) (UniProt Q8NGY1)
T6 sequence (whole entry): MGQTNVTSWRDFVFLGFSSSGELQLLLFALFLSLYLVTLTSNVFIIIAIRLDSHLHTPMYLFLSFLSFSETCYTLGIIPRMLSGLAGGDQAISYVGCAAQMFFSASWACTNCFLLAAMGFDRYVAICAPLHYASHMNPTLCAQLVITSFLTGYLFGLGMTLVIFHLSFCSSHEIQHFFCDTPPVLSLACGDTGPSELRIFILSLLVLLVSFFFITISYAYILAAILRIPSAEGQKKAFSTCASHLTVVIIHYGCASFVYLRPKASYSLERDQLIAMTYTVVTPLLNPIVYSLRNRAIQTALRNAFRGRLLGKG
Summary of the method: as §1

OR11A1 (Homo sapiens) = biological target: T7, OR11A1 (Homo sapiens) (UniProt Q9GZK7)
T7 sequence (whole entry): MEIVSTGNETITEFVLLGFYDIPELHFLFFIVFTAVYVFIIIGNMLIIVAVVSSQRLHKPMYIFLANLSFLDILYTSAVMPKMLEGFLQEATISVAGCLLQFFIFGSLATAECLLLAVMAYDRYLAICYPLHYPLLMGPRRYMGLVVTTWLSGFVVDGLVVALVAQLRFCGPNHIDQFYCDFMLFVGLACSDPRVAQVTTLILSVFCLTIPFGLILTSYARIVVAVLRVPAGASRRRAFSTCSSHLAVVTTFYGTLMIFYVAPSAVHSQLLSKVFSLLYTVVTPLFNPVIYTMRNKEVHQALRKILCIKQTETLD
Summary of the method: as §1

OR11H4 (Homo sapiens) = biological target: T8, OR11H4 (Homo sapiens) (UniProt Q8NGC9)
T8 sequence (whole entry): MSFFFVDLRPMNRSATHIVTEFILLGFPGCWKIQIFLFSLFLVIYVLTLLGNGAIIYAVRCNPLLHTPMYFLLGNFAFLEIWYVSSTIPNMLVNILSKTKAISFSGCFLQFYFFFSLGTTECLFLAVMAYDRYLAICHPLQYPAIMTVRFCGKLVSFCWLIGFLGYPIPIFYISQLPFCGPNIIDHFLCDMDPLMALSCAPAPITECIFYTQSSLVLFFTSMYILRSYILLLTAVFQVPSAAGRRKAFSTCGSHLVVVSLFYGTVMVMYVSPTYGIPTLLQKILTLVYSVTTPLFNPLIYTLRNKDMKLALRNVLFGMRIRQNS
Summary of the method: as §1

OR11H6 (Homo sapiens) = biological target: T9, OR11H6 (Homo sapiens) (UniProt Q8NGC7)
T9 sequence (whole entry): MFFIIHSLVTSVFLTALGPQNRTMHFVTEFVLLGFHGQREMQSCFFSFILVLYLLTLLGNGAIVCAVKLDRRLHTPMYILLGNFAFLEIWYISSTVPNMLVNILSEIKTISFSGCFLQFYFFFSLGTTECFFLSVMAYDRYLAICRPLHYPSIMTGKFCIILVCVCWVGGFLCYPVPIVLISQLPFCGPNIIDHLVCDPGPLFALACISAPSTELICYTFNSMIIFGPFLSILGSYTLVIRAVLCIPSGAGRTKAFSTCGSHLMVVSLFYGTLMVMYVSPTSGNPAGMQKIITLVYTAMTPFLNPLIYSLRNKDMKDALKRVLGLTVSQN
Summary of the method: as §1

OR12D2 (Homo sapiens) = biological target: T10, OR12D2 (Homo sapiens) (UniProt P58182)
T10 sequence (whole entry): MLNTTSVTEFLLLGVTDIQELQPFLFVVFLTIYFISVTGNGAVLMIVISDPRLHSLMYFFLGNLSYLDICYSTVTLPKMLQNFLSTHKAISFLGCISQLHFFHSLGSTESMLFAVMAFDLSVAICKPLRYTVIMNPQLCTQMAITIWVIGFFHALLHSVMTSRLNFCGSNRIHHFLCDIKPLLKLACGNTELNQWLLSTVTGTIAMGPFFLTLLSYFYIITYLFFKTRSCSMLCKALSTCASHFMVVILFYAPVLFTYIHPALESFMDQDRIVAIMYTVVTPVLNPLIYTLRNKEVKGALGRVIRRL
Summary of the method: as §1

OR12D3 (Homo sapiens) = biological target: T11, OR12D3 (Homo sapiens) (UniProt Q9UGF7)
T11 sequence (whole entry): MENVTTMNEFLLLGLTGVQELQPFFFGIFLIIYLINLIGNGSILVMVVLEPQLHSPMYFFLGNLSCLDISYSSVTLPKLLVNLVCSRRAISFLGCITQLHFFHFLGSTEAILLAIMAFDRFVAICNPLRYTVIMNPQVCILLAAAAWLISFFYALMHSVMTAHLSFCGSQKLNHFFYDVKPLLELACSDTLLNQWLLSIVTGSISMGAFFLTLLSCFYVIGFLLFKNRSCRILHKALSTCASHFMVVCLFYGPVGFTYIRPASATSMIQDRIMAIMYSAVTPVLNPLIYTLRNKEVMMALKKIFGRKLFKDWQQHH
Summary of the method: as §1

OR13A1 (Homo sapiens) = biological target: T12, OR13A1 (Homo sapiens) (UniProt Q8NGR1)
T12 sequence (whole entry): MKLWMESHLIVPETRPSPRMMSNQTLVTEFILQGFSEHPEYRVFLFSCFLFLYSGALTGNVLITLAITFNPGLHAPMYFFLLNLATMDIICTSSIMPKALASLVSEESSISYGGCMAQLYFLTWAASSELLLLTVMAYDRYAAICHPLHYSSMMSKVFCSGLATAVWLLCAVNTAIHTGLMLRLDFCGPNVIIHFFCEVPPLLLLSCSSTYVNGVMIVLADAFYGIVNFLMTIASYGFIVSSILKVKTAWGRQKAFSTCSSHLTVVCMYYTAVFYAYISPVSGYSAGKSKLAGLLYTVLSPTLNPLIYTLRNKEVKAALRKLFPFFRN
Summary of the method: as §1

OR10P1 (Homo sapiens) = OR10P1 (Homo sapiens) (UniProt Q8NGE3)
Summary of the method: as §1

OR10Q1 (Homo sapiens) = OR10Q1 (Homo sapiens) (UniProt Q8NGQ4)
Summary of the method: as §1

OR10R2 (Homo sapiens) = OR10R2 (Homo sapiens) (UniProt Q8NGX6)
Summary of the method: as §1

OR10W1 (Homo sapiens) = OR10W1 (Homo sapiens) (UniProt Q8NGF6)
Summary of the method: as §1

OR11G2 (Homo sapiens) = OR11G2 (Homo sapiens) (UniProt Q8NGC1)
Summary of the method: as §1

OR11H1 (Homo sapiens) = OR11H1 (Homo sapiens) (UniProt Q8NG94)
Summary of the method: as §1

OR11L1 (Homo sapiens) = OR11L1 (Homo sapiens) (UniProt Q8NGX0)
Summary of the method: as §1

Measured: odorant receptor agonist call

CC1CCC(C(C)C)C(O)C1 (centres undefined)
active: OR11A1 (Homo sapiens)
not listed: OR10P1 (Homo sapiens) | OR10Q1 (Homo sapiens) | OR10R2 (Homo sapiens) | OR10W1 (Homo sapiens) | OR11G2 (Homo sapiens) | OR11H1 (Homo sapiens) | OR11L1 (Homo sapiens)
inactive: all other assays above

CC(C)CC(=O)O
active: OR11H4 (Homo sapiens) | OR11H6 (Homo sapiens)
not listed: OR10P1 (Homo sapiens) | OR10Q1 (Homo sapiens) | OR10R2 (Homo sapiens) | OR10W1 (Homo sapiens) | OR11G2 (Homo sapiens) | OR11H1 (Homo sapiens) | OR11L1 (Homo sapiens)
inactive: all other assays above

COC(=O)c1ccccc1
active: OR10K1 (Homo sapiens) | OR10K2 (Homo sapiens)
inactive: OR10T2 (Homo sapiens) | OR10X1 (Homo sapiens) | OR10Z1 (Homo sapiens) | OR11A1 (Homo sapiens) | OR11H4 (Homo sapiens) | OR11H6 (Homo sapiens) | OR12D2 (Homo sapiens) | OR12D3 (Homo sapiens) | OR13A1 (Homo sapiens)

CCCCCCOC(=O)CCC
not listed: OR10S1 (Homo sapiens) | OR10P1 (Homo sapiens) | OR10Q1 (Homo sapiens) | OR10R2 (Homo sapiens) | OR10W1 (Homo sapiens) | OR11G2 (Homo sapiens) | OR11H1 (Homo sapiens) | OR11L1 (Homo sapiens)
inactive: all other assays above

COc1cc(C=O)ccc1O
not listed: OR10P1 (Homo sapiens) | OR10Q1 (Homo sapiens) | OR10R2 (Homo sapiens) | OR10W1 (Homo sapiens) | OR11G2 (Homo sapiens) | OR11H1 (Homo sapiens) | OR11L1 (Homo sapiens)
inactive: all other assays above

CCCCCC(=O)O
not listed: OR10S1 (Homo sapiens) | OR10P1 (Homo sapiens) | OR10Q1 (Homo sapiens) | OR10R2 (Homo sapiens) | OR10W1 (Homo sapiens) | OR11G2 (Homo sapiens) | OR11H1 (Homo sapiens) | OR11L1 (Homo sapiens)
inactive: all other assays above

CCCCCCCCCCC=O
not listed: OR10P1 (Homo sapiens) | OR10Q1 (Homo sapiens) | OR10R2 (Homo sapiens) | OR10W1 (Homo sapiens) | OR11G2 (Homo sapiens) | OR11H1 (Homo sapiens) | OR11L1 (Homo sapiens)
inactive: all other assays above

CCCCCCCCCC=O
not listed: OR10S1 (Homo sapiens) | OR10P1 (Homo sapiens) | OR10Q1 (Homo sapiens) | OR10R2 (Homo sapiens) | OR10W1 (Homo sapiens) | OR11G2 (Homo sapiens) | OR11H1 (Homo sapiens) | OR11L1 (Homo sapiens)
inactive: all other assays above

CCCCCCCC=O
not listed: OR10P1 (Homo sapiens) | OR10Q1 (Homo sapiens) | OR10R2 (Homo sapiens) | OR10W1 (Homo sapiens) | OR11G2 (Homo sapiens) | OR11H1 (Homo sapiens) | OR11L1 (Homo sapiens)
inactive: all other assays above

COc1ccccc1O
not listed: OR10S1 (Homo sapiens) | OR10P1 (Homo sapiens) | OR10Q1 (Homo sapiens) | OR10R2 (Homo sapiens) | OR10W1 (Homo sapiens) | OR11G2 (Homo sapiens) | OR11H1 (Homo sapiens) | OR11L1 (Homo sapiens)
inactive: all other assays above

CC12C=CCC1C1CCC3CC(=O)CCC3(C)C1CC2 (centres undefined)
not listed: OR10S1 (Homo sapiens)
inactive: all other assays above

CC12CCC(CC1)C(C)(C)O2
not listed: OR10S1 (Homo sapiens) | OR10P1 (Homo sapiens) | OR10Q1 (Homo sapiens) | OR10R2 (Homo sapiens) | OR10W1 (Homo sapiens) | OR11G2 (Homo sapiens) | OR11H1 (Homo sapiens) | OR11L1 (Homo sapiens)
inactive: all other assays above
